Data reported in the supplement of paper PMC12823440, “Inhibitors supercharge kinase turnover through native proteolytic circuits” (Nature, 2025).
The other results are listed elsewhere or left out. The calls rarely recur for the same compound in another form.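 Kinases were expressed as nanoluciferase fusions in K562 cells and luminescence was read every 4 h between 2 and 18 h as percent of control, DMSO set to 100% and a positive control to 0%. A time point counts as decreased when the signal drops significantly (2 sigma). The hit call is the authors' own, does not follow from the count of time points alone, and its rule is not shown.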

Chains of the proteins cited; added tags and fusions are not shown. Lines headed by an entry give the natural chain unless they say otherwise; changes in a name come on top.
UniProt P42356, whole entry, looked up: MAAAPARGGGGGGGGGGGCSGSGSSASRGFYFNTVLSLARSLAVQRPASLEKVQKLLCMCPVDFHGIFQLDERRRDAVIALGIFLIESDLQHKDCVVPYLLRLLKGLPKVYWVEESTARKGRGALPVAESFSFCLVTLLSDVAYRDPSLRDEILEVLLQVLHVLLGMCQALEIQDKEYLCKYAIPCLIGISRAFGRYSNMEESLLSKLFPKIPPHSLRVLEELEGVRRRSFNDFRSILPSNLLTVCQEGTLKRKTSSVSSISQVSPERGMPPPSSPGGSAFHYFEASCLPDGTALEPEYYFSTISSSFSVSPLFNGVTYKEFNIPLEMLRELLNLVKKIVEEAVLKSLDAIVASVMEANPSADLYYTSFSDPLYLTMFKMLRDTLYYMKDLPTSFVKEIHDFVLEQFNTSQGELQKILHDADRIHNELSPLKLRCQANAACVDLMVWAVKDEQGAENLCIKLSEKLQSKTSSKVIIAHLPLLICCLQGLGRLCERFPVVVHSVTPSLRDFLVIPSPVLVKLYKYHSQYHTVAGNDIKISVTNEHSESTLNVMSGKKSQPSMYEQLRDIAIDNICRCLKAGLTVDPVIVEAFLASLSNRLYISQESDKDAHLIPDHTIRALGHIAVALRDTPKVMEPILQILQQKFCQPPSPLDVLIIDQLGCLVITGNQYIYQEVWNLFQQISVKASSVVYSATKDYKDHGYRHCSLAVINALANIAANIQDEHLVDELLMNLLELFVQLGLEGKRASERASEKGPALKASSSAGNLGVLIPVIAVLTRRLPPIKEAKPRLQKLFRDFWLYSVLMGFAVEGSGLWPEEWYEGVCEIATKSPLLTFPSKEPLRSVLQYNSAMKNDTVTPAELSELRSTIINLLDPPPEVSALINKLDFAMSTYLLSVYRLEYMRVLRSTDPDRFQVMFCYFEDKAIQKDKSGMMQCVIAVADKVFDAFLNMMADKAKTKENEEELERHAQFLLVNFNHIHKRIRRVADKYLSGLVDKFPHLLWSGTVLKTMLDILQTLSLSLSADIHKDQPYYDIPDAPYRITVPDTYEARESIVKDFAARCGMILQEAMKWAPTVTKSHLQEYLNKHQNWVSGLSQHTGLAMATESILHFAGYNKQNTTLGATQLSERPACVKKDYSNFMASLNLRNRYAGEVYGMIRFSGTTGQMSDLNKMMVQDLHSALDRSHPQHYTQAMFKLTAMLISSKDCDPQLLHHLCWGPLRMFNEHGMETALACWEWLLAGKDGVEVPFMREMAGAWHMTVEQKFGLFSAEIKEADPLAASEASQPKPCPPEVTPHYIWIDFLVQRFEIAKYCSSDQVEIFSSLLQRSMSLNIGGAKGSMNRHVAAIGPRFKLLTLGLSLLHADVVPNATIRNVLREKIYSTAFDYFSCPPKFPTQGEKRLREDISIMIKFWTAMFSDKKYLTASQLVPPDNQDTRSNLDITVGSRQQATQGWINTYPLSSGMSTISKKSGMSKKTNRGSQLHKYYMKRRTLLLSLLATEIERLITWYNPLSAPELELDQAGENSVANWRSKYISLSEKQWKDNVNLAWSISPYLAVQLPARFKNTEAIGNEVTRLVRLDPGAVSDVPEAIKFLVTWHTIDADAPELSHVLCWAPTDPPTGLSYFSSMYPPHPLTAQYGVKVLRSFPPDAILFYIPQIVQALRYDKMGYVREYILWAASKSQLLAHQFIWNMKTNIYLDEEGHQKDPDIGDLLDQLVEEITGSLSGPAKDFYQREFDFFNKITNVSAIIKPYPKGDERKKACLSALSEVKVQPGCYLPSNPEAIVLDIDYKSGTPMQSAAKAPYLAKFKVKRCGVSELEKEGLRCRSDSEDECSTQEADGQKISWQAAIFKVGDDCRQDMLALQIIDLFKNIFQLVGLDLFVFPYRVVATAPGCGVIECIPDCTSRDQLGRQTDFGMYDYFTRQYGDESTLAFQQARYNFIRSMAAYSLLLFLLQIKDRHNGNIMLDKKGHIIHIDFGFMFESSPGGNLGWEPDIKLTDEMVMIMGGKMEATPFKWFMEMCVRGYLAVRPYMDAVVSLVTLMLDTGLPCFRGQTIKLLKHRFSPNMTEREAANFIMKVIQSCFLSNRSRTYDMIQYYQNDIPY
UniProt Q13131: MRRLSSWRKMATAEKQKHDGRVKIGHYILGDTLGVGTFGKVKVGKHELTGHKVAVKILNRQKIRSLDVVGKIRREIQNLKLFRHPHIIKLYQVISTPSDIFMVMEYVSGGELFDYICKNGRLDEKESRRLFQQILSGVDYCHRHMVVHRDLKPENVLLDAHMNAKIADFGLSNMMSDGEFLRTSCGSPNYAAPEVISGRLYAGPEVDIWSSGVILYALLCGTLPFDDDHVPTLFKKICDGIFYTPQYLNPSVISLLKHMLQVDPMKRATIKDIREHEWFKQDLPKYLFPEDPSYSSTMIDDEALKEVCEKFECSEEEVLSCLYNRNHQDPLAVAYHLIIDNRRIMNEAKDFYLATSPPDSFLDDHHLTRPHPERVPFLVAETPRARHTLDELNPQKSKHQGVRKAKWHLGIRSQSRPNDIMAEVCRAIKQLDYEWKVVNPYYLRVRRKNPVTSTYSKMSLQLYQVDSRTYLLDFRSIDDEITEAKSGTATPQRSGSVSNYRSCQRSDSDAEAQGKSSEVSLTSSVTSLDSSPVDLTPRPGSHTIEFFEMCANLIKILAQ
UniProt Q05397, whole entry, looked up: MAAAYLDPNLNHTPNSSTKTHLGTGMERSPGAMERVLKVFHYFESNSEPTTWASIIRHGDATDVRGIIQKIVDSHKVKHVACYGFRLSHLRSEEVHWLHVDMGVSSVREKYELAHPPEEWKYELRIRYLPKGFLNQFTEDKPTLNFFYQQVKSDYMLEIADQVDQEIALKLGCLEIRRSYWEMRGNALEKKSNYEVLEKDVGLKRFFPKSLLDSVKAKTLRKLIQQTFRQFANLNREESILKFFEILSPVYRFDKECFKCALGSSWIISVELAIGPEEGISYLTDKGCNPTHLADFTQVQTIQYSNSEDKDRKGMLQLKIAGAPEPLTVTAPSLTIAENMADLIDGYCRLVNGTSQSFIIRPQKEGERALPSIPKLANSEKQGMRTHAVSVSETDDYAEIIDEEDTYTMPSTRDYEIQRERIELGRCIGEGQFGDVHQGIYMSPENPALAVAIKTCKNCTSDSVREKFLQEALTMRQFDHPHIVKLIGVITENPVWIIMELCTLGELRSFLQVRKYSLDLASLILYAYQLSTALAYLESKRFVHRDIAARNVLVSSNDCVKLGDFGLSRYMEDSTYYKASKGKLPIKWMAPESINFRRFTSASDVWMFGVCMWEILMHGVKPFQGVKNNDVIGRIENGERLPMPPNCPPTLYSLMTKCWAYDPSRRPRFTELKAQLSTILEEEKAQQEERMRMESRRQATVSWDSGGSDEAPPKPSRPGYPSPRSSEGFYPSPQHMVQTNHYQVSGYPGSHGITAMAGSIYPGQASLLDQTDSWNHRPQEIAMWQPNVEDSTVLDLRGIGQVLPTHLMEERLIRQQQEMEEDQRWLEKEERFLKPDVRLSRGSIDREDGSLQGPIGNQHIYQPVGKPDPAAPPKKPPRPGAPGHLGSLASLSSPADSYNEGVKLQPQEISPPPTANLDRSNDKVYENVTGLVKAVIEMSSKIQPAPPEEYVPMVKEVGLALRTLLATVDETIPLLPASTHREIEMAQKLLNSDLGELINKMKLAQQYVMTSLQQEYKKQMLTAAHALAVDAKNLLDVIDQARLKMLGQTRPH
UniProt Q14289, whole entry, looked up: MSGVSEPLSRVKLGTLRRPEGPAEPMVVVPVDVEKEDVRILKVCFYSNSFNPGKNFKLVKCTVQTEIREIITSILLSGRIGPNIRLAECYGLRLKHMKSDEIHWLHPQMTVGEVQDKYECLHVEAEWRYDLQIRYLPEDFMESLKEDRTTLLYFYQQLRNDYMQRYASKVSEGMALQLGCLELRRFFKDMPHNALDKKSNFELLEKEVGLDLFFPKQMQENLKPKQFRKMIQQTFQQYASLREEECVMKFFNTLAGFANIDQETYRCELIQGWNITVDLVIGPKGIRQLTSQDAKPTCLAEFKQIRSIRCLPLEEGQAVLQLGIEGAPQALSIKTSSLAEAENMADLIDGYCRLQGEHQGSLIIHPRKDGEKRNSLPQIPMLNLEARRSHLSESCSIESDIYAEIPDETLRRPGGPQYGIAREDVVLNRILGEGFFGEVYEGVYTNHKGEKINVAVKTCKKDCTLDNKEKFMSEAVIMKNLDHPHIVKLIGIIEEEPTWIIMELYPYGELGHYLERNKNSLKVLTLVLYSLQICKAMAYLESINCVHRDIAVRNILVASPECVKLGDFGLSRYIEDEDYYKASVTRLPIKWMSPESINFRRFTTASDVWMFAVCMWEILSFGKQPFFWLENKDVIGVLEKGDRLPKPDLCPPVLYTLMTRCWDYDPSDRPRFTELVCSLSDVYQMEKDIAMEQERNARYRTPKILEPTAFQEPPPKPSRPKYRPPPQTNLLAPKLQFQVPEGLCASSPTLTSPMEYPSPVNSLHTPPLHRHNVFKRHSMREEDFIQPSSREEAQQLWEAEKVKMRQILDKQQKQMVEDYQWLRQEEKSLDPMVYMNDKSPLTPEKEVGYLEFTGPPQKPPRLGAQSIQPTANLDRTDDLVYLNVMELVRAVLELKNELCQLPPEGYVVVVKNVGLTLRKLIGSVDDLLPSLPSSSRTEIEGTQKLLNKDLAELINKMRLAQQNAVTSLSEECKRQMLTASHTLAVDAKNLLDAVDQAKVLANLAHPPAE
UniProt P07949, whole entry, looked up: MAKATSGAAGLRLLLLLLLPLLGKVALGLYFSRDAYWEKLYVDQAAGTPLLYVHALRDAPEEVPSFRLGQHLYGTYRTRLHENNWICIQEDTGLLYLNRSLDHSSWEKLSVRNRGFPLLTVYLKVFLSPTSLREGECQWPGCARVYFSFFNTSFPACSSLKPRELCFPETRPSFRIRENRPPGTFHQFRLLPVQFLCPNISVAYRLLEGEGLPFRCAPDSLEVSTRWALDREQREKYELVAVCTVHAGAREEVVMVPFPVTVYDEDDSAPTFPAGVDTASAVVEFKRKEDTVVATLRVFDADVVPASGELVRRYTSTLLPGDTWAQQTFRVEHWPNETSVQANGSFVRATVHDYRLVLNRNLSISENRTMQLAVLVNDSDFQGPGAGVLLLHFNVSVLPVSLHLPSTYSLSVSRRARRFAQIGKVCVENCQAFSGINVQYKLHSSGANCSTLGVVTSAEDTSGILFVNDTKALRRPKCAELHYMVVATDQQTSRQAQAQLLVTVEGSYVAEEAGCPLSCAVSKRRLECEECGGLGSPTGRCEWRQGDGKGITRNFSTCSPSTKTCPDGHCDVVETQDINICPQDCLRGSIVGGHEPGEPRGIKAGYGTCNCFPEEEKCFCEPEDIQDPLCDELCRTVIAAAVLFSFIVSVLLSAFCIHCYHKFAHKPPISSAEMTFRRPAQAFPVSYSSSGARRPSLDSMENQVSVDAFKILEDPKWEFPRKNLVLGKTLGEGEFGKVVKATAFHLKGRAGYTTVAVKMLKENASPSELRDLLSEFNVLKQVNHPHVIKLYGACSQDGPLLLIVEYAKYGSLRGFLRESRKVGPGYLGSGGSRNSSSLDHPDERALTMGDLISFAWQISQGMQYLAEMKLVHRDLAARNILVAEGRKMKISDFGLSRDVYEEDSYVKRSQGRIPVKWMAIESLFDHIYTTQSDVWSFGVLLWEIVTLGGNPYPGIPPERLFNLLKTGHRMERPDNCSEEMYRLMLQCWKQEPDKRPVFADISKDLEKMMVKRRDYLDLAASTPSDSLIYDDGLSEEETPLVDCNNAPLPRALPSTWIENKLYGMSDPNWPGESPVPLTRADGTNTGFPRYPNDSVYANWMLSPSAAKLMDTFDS
UniProt Q15418, whole entry: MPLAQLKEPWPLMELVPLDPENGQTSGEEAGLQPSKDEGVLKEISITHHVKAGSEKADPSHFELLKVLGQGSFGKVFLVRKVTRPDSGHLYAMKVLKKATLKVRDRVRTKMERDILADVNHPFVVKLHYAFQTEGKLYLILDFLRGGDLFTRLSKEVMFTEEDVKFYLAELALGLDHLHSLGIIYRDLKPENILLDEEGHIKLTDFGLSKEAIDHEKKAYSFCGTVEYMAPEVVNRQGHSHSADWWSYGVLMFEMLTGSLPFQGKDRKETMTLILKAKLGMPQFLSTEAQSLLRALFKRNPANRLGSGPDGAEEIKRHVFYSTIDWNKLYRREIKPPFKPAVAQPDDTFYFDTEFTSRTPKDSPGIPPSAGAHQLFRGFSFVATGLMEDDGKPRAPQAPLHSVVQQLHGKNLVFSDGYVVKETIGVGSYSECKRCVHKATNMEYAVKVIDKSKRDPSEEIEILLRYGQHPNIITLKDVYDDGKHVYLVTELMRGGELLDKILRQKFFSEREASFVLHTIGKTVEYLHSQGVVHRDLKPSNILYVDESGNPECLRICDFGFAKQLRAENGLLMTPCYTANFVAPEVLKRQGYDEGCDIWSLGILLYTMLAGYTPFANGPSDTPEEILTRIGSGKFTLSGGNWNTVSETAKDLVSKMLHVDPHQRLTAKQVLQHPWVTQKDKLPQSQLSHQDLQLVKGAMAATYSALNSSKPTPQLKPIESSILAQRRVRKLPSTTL

What was measured:
Assay in all cases: kinase-Nluc reporter destabilization hit call (1 = scored as downregulated) (binary); higher = compound decreases kinase abundance
Conditions in all cases: K562; 2-18 h
PDPK1 = PDPK1 (UniProt O15530)
PIK4CA = PIK4CA (UniProt P42356)
PIK4CB = PIK4CB (UniProt Q9UBF8)
PLK1 = PLK1 (UniProt P53350)
PRKAA1 = PRKAA1 (UniProt Q13131)
PRKCA = PRKCA (UniProt P17252)
PTK2 = PTK2 (UniProt Q05397)
PTK2B = PTK2B (UniProt Q14289)
RAF1 = RAF1 (UniProt P04049)
[1] = molecular target: RAF1_S257L (clone: RAF1_mut) (UniProt P04049)
RET = RET (UniProt P07949)
[2] = molecular target: RET_M918T (clone: RET_mut) (UniProt P07949)
RIOK1 = RIOK1 (UniProt Q9BRS2)
RIPK1 = RIPK1 (UniProt Q13546)
RIPK2 = RIPK2 (UniProt O43353)
ROR2 = ROR2 (UniProt Q01974)
RPS6KA1 = RPS6KA1 (UniProt Q15418)
SPHK1 = SPHK1 (UniProt Q9NYA1)
SRC = SRC (UniProt P12931)
STK24 = STK24 (UniProt Q9Y6E0)

Measured: kinase-Nluc reporter destabilization hit call

FC(F)(F)c1ccc(CNc2ccc(Cc3c[nH]c4ncc(Cl)cc34)cn2)cc1 (10 µM)
inactive: PDPK1 = 0 | PIK4CA 0 | PIK4CB 0 | PLK1 = 0 | PRKAA1 = 0 | PRKCA 0 | PTK2 = 0 | PTK2B 0 | RAF1 = 0 | [1] 0 | RET 0 | [2] 0 | RIOK1 = 0 | RIPK1 = 0 | RIPK2 = 0 | ROR2 = 0 | RPS6KA1 = 0 | SPHK1 = 0 | SRC 0 | STK24 = 0

C=CC(=O)N1CCC[C@@H](n2nc(-c3ccc(Oc4ccccc4)cc3)c(C(N)=O)c2N)C1 [Btk inhibitor 2] (10 µM)
inactive: PDPK1 = 0 | PIK4CA 0 | PIK4CB 0 | PLK1 = 0 | PRKAA1 = 0 | PRKCA 0 | PTK2 = 0 | PTK2B 0 | RAF1 = 0 | [1] 0 | RET 0 | [2] 0 | RIOK1 = 0 | RIPK1 = 0 | RIPK2 = 0 | ROR2 = 0 | RPS6KA1 = 0 | SPHK1 = 0 | SRC 0 | STK24 = 0

CC(C)(C)c1nc2c3cc[nH]c(=O)c3c3cc(F)ccc3c2[nH]1 [Pyridone 6] (10 µM)
inactive: PDPK1 = 0 | PIK4CA 0 | PIK4CB 0 | PLK1 = 0 | PRKAA1 = 0 | PRKCA 0 | PTK2 = 0 | PTK2B 0 | RAF1 = 0 | [1] 0 | RET 0 | [2] 0 | RIOK1 = 0 | RIPK1 = 0 | RIPK2 = 0 | ROR2 = 0 | RPS6KA1 = 0 | SPHK1 = 0 | SRC 0 | STK24 = 0

CC(C)c1ccc2oc3nc(N)c(C(=O)O)cc3c(=O)c2c1 [Amlexanox] (10 µM)
inactive: PDPK1 = 0 | PIK4CA 0 | PIK4CB 0 | PLK1 = 0 | PRKAA1 = 0 | PRKCA 0 | PTK2 = 0 | PTK2B 0 | RAF1 = 0 | [1] 0 | RET 0 | [2] 0 | RIOK1 = 0 | RIPK1 = 0 | RIPK2 = 0 | ROR2 = 0 | RPS6KA1 = 0 | SPHK1 = 0 | SRC 0 | STK24 = 0

C=CC(=O)N1CC[C@H](n2nc(C#Cc3cc(OC)cc(OC)c3)c3c(N)ncnc32)C1 [Futibatinib] (10 µM)
inactive: PDPK1 = 0 | PIK4CA 0 | PIK4CB 0 | PLK1 = 0 | PRKAA1 = 0 | PRKCA 0 | PTK2 = 0 | PTK2B 0 | RAF1 = 0 | [1] 0 | RET 0 | [2] 0 | RIOK1 = 0 | RIPK1 = 0 | RIPK2 = 0 | ROR2 = 0 | RPS6KA1 = 0 | SPHK1 = 0 | SRC 0 | STK24 = 0

O=c1c(-c2ccc(O)cc2)coc2cc(O)cc(O)c12 [Genistein] (10 µM)
inactive: PDPK1 = 0 | PIK4CA 0 | PIK4CB 0 | PLK1 = 0 | PRKAA1 = 0 | PRKCA 0 | PTK2 = 0 | PTK2B 0 | RAF1 = 0 | [1] 0 | RET 0 | [2] 0 | RIOK1 = 0 | RIPK1 = 0 | RIPK2 = 0 | ROR2 = 0 | RPS6KA1 = 0 | SPHK1 = 0 | SRC 0 | STK24 = 0

CC(=O)NCC(=O)N1[C@@H]2CC[C@H]1c1ccc(Nc3ncc(C(F)(F)F)c(NC4CCC4)n3)cc12 (2.5 µM)
inactive: PDPK1 = 0 | PIK4CA 0 | PIK4CB 0 | PLK1 = 0 | PRKAA1 = 0 | PRKCA 0 | PTK2 = 0 | PTK2B 0 | RAF1 = 0 | [1] 0 | RET 0 | [2] 0 | RIOK1 = 0 | RIPK1 = 0 | RIPK2 = 0 | ROR2 = 0 | RPS6KA1 = 0 | SPHK1 = 0 | SRC 0 | STK24 = 0

Cc1ccc(F)c(NC(=O)Nc2ccc(-c3cccc4[nH]nc(N)c34)cc2)c1 [Linifanib] (2.5 µM)
inactive: PDPK1 = 0 | PIK4CA 0 | PIK4CB 0 | PLK1 = 0 | PRKAA1 = 0 | PRKCA 0 | PTK2B 0 | RAF1 = 0 | [1] 0 | RET 0 | [2] 0 | RIOK1 = 0 | RIPK1 = 0 | RIPK2 = 0 | ROR2 = 0 | RPS6KA1 = 0 | SPHK1 = 0 | SRC 0 | STK24 = 0
active: PTK2 = 1

COc1ccc(C=C(C#N)c2cccnc2)cc1OC (10 µM)
inactive: PDPK1 = 0 | PIK4CA 0 | PIK4CB 0 | PLK1 = 0 | PRKAA1 = 0 | PRKCA 0 | PTK2 = 0 | PTK2B 0 | RAF1 = 0 | [1] 0 | RET 0 | [2] 0 | RIOK1 = 0 | RIPK1 = 0 | RIPK2 = 0 | ROR2 = 0 | RPS6KA1 = 0 | SPHK1 = 0 | SRC 0 | STK24 = 0

CCn1cc(-c2ccnc3[nH]c(-c4cccc(CN(C)C)c4)cc23)c(-c2ccc(NC(=O)N(C)C)cc2)n1 (2.5 µM)
inactive: PDPK1 = 0 | PIK4CA 0 | PIK4CB 0 | PLK1 = 0 | PRKAA1 = 0 | PRKCA 0 | PTK2 = 0 | PTK2B 0 | RAF1 = 0 | [1] 0 | RET 0 | [2] 0 | RIOK1 = 0 | RIPK1 = 0 | RIPK2 = 0 | ROR2 = 0 | RPS6KA1 = 0 | SPHK1 = 0 | SRC 0 | STK24 = 0

N#CC(=Cc1ccc(O)c(O)c1)C(=O)NCc1ccccc1 (mixture of isomers) (10 µM)
inactive: PDPK1 = 0 | PIK4CA 0 | PIK4CB 0 | PLK1 = 0 | PRKAA1 = 0 | PRKCA 0 | PTK2 = 0 | PTK2B 0 | RAF1 = 0 | [1] 0 | RET 0 | [2] 0 | RIOK1 = 0 | RIPK1 = 0 | RIPK2 = 0 | ROR2 = 0 | RPS6KA1 = 0 | SPHK1 = 0 | SRC 0 | STK24 = 0

Cc1cccc([C@@H](CO)NC(=O)[C@@H](C)N2Cc3ccc(-c4nc(NC5CCOCC5)ncc4Cl)cc3C2=O)c1 [ERK1/2 inhibitor 1] (10 µM)
inactive: PDPK1 = 0 | PIK4CA 0 | PIK4CB 0 | PLK1 = 0 | PRKAA1 = 0 | PRKCA 0 | PTK2 = 0 | PTK2B 0 | RAF1 = 0 | [1] 0 | RET 0 | [2] 0 | RIOK1 = 0 | RIPK1 = 0 | RIPK2 = 0 | ROR2 = 0 | RPS6KA1 = 0 | SPHK1 = 0 | SRC 0 | STK24 = 0

In the list so far, four have fluorine.
FC(F)(F)c1ccc(CNc2ccc(Cc3c[nH]c4ncc(Cl)cc34)cn2)cc1 (10 µM)
inactive: PDPK1 = 0 | PIK4CA 0 | PIK4CB 0 | PLK1 = 0 | PRKAA1 = 0 | PRKCA 0 | PTK2 = 0 | PTK2B 0 | RAF1 = 0 | [1] 0 | RET 0 | [2] 0 | RIOK1 = 0 | RIPK1 = 0 | RIPK2 = 0 | ROR2 = 0 | RPS6KA1 = 0 | SPHK1 = 0 | SRC 0 | STK24 = 0

CC(C)(C)c1nc2c3cc[nH]c(=O)c3c3cc(F)ccc3c2[nH]1 [Pyridone 6] (10 µM)
inactive: PDPK1 = 0 | PIK4CA 0 | PIK4CB 0 | PLK1 = 0 | PRKAA1 = 0 | PRKCA 0 | PTK2 = 0 | PTK2B 0 | RAF1 = 0 | [1] 0 | RET 0 | [2] 0 | RIOK1 = 0 | RIPK1 = 0 | RIPK2 = 0 | ROR2 = 0 | RPS6KA1 = 0 | SPHK1 = 0 | SRC 0 | STK24 = 0

CC(=O)NCC(=O)N1[C@@H]2CC[C@H]1c1ccc(Nc3ncc(C(F)(F)F)c(NC4CCC4)n3)cc12 (2.5 µM)
inactive: PDPK1 = 0 | PIK4CA 0 | PIK4CB 0 | PLK1 = 0 | PRKAA1 = 0 | PRKCA 0 | PTK2 = 0 | PTK2B 0 | RAF1 = 0 | [1] 0 | RET 0 | [2] 0 | RIOK1 = 0 | RIPK1 = 0 | RIPK2 = 0 | ROR2 = 0 | RPS6KA1 = 0 | SPHK1 = 0 | SRC 0 | STK24 = 0

Cc1ccc(F)c(NC(=O)Nc2ccc(-c3cccc4[nH]nc(N)c34)cc2)c1 [Linifanib] (2.5 µM)
inactive: PDPK1 = 0 | PIK4CA 0 | PIK4CB 0 | PLK1 = 0 | PRKAA1 = 0 | PRKCA 0 | PTK2B 0 | RAF1 = 0 | [1] 0 | RET 0 | [2] 0 | RIOK1 = 0 | RIPK1 = 0 | RIPK2 = 0 | ROR2 = 0 | RPS6KA1 = 0 | SPHK1 = 0 | SRC 0 | STK24 = 0
active: PTK2 = 1

Further structures follow:

CCCCNc1ncc(-c2ccc(CN3CCOCC3)cn2)c(NC2CCC(O)CC2)n1 (stereo not given) (10 µM)
inactive: PDPK1 = 0 | PIK4CA 0 | PIK4CB 0 | PLK1 = 0 | PRKAA1 = 0 | PRKCA 0 | PTK2 = 0 | PTK2B 0 | RAF1 = 0 | [1] 0 | RET 0 | [2] 0 | RIOK1 = 0 | RIPK1 = 0 | RIPK2 = 0 | ROR2 = 0 | RPS6KA1 = 0 | SPHK1 = 0 | SRC 0 | STK24 = 0

N#C/C(=C\c1ccc(O)c(O)c1)C(=O)NCc1ccccc1 (10 µM)
inactive: PDPK1 = 0 | PIK4CA 0 | PIK4CB 0 | PLK1 = 0 | PRKAA1 = 0 | PRKCA 0 | PTK2 = 0 | PTK2B 0 | RAF1 = 0 | [1] 0 | RET 0 | [2] 0 | RIOK1 = 0 | RIPK1 = 0 | RIPK2 = 0 | ROR2 = 0 | RPS6KA1 = 0 | SPHK1 = 0 | SRC 0 | STK24 = 0

Oc1cc(O)cc(/C=C/c2ccc(O)c(O)c2)c1 [Piceatannol] (10 µM)
inactive: PDPK1 = 0 | PIK4CA 0 | PIK4CB 0 | PLK1 = 0 | PRKAA1 = 0 | PRKCA 0 | PTK2 = 0 | PTK2B 0 | RAF1 = 0 | [1] 0 | RET 0 | [2] 0 | RIOK1 = 0 | RIPK1 = 0 | ROR2 = 0 | RPS6KA1 = 0 | SPHK1 = 0 | SRC 0 | STK24 = 0
active: RIPK2 = 1

COc1cc2ncnc(Nc3cccc(Cl)c3F)c2cc1OC(=O)N1CCN(C)C[C@H]1C [Zorifertinib] (10 µM)
inactive: PDPK1 = 0 | PIK4CA 0 | PIK4CB 0 | PLK1 = 0 | PRKAA1 = 0 | PRKCA 0 | PTK2 = 0 | PTK2B 0 | RAF1 = 0 | [1] 0 | RET 0 | [2] 0 | RIOK1 = 0 | RIPK1 = 0 | RIPK2 = 0 | ROR2 = 0 | RPS6KA1 = 0 | SPHK1 = 0 | SRC 0 | STK24 = 0

COc1c(CC=C(C)C)c(O)cc2oc(=O)c(-c3ccc(O)cc3O)cc12 [Glycycoumarin] (10 µM)
inactive: PDPK1 = 0 | PIK4CA 0 | PIK4CB 0 | PLK1 = 0 | PRKAA1 = 0 | PRKCA 0 | PTK2 = 0 | PTK2B 0 | RAF1 = 0 | [1] 0 | RET 0 | [2] 0 | RIOK1 = 0 | RIPK1 = 0 | RIPK2 = 0 | ROR2 = 0 | RPS6KA1 = 0 | SPHK1 = 0 | SRC 0 | STK24 = 0

CNc1nc(-c2ccc3c(N)n[nH]c3c2)cc(N2C[C@@H](C(=O)NC3CCCCC3)CC[C@H]2C)n1 (10 µM)
active: PIK4CB 1
inactive: PDPK1 = 0 | PIK4CA 0 | PLK1 = 0 | PRKAA1 = 0 | PRKCA 0 | PTK2 = 0 | PTK2B 0 | RAF1 = 0 | [1] 0 | RET 0 | [2] 0 | RIOK1 = 0 | RIPK1 = 0 | RIPK2 = 0 | ROR2 = 0 | RPS6KA1 = 0 | SPHK1 = 0 | SRC 0 | STK24 = 0
